The supplement of paper PMC8007513
Some of the results follow. Most values come without repeats; read them as rough.

Each molecule was assayed on Saccharomyces cerevisiae BY4743 (assay: growth (OD600) relative to untreated control; higher = less growth inhibition). Settings: compound concentration: 133 uM; 20 h.
Protocol: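 NMCCC compounds (133 uM, no IPBC) tested alone against Saccharomyces cerevisiae BY4743 in YPD, 96-well plates, starting OD600 ~0.1. Growth was read as OD600 at 20 h and expressed as % of the untreated control. Single pass.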

| SMILES | growth [%] |
| --- | --- |
| CC1=CC=CC(=C1C)NC(=O)CNC(=O)CN2\N=C(\C(N)=O)C3=CC=CC=C3C2=O | 98.3 |
| CCOC(=O)C1CCN(CC1)C(=O)N\C2=C\N(C)C(=O)C3=CC=CC=C23 | 103 |
| CCOC(=O)N1CCN(c2ncc3c(n2)CCCC3=O)CC1 | 114 |
| CCC(CC)n1nc(O)c2c(C)cc(C)nc21 | 108 |
| COC(=O)\C1=C\N\C=C(/C1C2=CC=C(OC)C(=C2)O)C(=O)OC | 99.9 |
| COc1cccc(CN2CCC(NC(=O)c3ccnc(N(C)C)c3)CC2)c1 | 107 |
| CCOC(=O)c1c(C)[nH]c(CN(Cc2ccc(C)cc2)S(=O)(=O)c2c(C)noc2C)c1C | 108 |
| Cc1ccc(CNS(=O)(=O)c2ccc3c(c2)C(C)(C)C(=O)N3)cc1 | 112 |
| COC(=O)CCN1C(=O)\C=C(\C)C2=C[N](C)N=C12 | 101 |
| COC1=CC=CC(=C1)C/2=N/[S](=O)(=O)N(C)/C(=C2)C(=O)NC3=C[N](N=C3)C(C)C | 109 |
| CCN(CC(=O)NCc1cccs1)C(=O)c1ccc(-n2cccn2)cc1 | 105 |
| CCOC(=O)c1[nH]c(C)c(C(=O)N2CCC(CC(=O)NC(C)CC)CC2)c1C (centres undefined) | 91.3 |
| NC(=O)NC(CC(=O)OCC(=O)c1ccc(F)cc1)c1ccccc1Cl (centres undefined) | 103 |
| Cc1noc(C)c1C(=O)OCC(=O)NCC1CCCO1 (centres undefined) | 91.6 |
| CCC(C(=O)N(CC)Cc1ccc2c(c1)OCCO2)c1ccccc1 (centres undefined) | 94 |
| COc1ccc(C(CC(=O)O)NS(=O)(=O)c2ccc3c(c2)N(C(C)=O)CC(C)O3)cc1 (centres undefined) | 93.5 |
| CN(Cc1ccc(Cl)s1)C(=O)CSc1nnc(-c2ccc[nH]2)o1 | 87.9 |
| COc1ccc(S(=O)(=O)N(C)C)cc1NC(=O)CNC(c1ccccc1)C(C)C (centres undefined) | 106 |
| CC(OC(=O)\C1=N\N(C(=O)CC1)C2=CC=CC=C2)C(=O)NC3=CC=CC=C3OC(F)F (centres undefined) | 90.5 |
| O=C(CCSc1nnc(Nc2ccccc2F)s1)Nc1ccccc1F | 80.1 |

| SMILES | growth [%] |
| --- | --- |
| COC(=O)c1cc(NC(=O)Cc2ccc(NC(=O)OC(C)(C)C)cc2)ccc1Cl | 119 |
| COC(=O)\C1=C(/C)N\2C(=O)CSC2=N/C1C3=CC(=CC=C3OC)OC (centres undefined) | 89.1 |
| CN1C(=O)\C=C(\CNC(=O)CCNC(=O)C2=CC(=NC3=CC=CC=C23)O)N(C)C1=O | 99.6 |
| CCOC(=O)c1c(NC(=O)c2ccccc2)sc(C(C)=O)c1-c1ccccc1 | 78.8 |
| CCC(=O)Nc1nc2ccc(CC(=O)NCCN(C)C3CCCCC3)cc2s1 | 116 |
| CC(C)COC(=O)Nc1nnc(/C=C/c2ccccc2)s1 | 88.9 |
| CCOC(=O)N1CCN(C(=O)c2cc(OC)c(OC)cc2-n2cccc2)CC1 | 103 |
| Cc1cc(C)nc(NS(=O)(=O)c2ccc(-n3cnnn3)cc2)n1 | 98.6 |
| CCN1CCN(c2ccccc2NS(=O)(=O)c2cc(Br)cc(C(=O)O)c2F)CC1 | 105 |
| COc1cccc(NC(=O)C2(n3cnnn3)CCCCC2)c1 | 90 |
| COCc1c(C(=O)Nc2nc[nH]n2)sc2cccc(F)c12 | 89.4 |
| CCOC(=O)c1c(C)[nH]c(C)c1S(=O)(=O)NCC(=O)N1c2ccccc2CC1C (centres undefined) | 100 |
| COC1=CC=CC=C1C(=O)N\C2=C\N=C3\S\C=C/N3C2=O | 97.7 |
| Cc1nc2ccccc2n1CCNC(=O)c1ccccc1Cl | 101 |
| CNC(=O)NC(=O)CSc1nnc(Nc2ccc(Oc3ccccc3)cc2)s1 | 100 |
| O=C(CNC(=O)c1ccccc1)NN1S(=O)(=O)c2ccccc2S1(=O)=O | 98.6 |
| CCN(CC)\C1=C(/C(=O)N2CCOCC2)[S](=O)(=O)C3=CC=CC=C13 | 91.4 |
| CC(Sc1n[nH]c(-c2ccc(Cl)cc2)n1)C(=O)NC1CCCCC1 (centres undefined) | 94.6 |
| CCOC(=O)c1c(C)c(C(=O)NCc2ccc3c(c2)OCO3)c(C)n1CC | 87.7 |

Part of the list above in order of length of the SMILES, low to high:

| SMILES | growth [%] |
| --- | --- |
| CCC(CC)n1nc(O)c2c(C)cc(C)nc21 | 108 |
| Cc1noc(C)c1C(=O)OCC(=O)NCC1CCCO1 (centres undefined) | 91.6 |
| COc1cccc(NC(=O)C2(n3cnnn3)CCCCC2)c1 | 90 |
| CCOC(=O)N1CCN(c2ncc3c(n2)CCCC3=O)CC1 | 114 |
| O=C(CCSc1nnc(Nc2ccccc2F)s1)Nc1ccccc1F | 80.1 |
| CC(Sc1n[nH]c(-c2ccc(Cl)cc2)n1)C(=O)NC1CCCCC1 (centres undefined) | 94.6 |
| COC(=O)\C1=C\N\C=C(/C1C2=CC=C(OC)C(=C2)O)C(=O)OC | 99.9 |
| COC(=O)\C1=C(/C)N\2C(=O)CSC2=N/C1C3=CC(=CC=C3OC)OC (centres undefined) | 89.1 |
| CCOC(=O)c1c(C)[nH]c(C)c1S(=O)(=O)NCC(=O)N1c2ccccc2CC1C (centres undefined) | 100 |
